Data set [1] is described as follows: Smell added, aspartame solution (Experimental Example 22).
The nature of data set [2]: Smell added, RebA solution (Experimental Examples 17-19). The note with it: acid added alone at 10000 ppb.
Data set [3] in a line: Smell added, RebM solution (Experimental Examples 20-21). The conditions noted are these: acid added alone at 10000 ppb.
Data set [4] in a line: Smell added, sucralose solution (Experimental Examples 23-24). The conditions noted are these: added alone at 10000 ppb to 0.0140 wt % sucralose solution; two or more of four panel members detected smell.

Some compounds share one wording; it may come from a single statement.

For the compound `CCCCCCCCCCC(=O)O` [undecanoic acid], the smell added result in data set [1] (acid added alone at 10000 ppb), in data set [2], in data set [3] and in data set [4] was “added (A smell was considered to be added when two or more panel members detected a smell derived from the compound.)” each time.

Take `CCCCCCCCC(=O)O` [nonanoic acid]: the smell added entry in data set [1] (acid added alone at 10000 ppb) and in data set [2] was “added (A smell was considered to be added when two or more panel members detected a smell derived from the compound.)” each time.

Consider `CCCCCCCC(=O)O` [octanoic acid], for which the smell added entry in data set [1] (acid added alone at 1000 ppb), in data set [1] (acid added alone at 10000 ppb) and in data set [3] was “added (A smell was considered to be added when two or more panel members detected a smell derived from the compound.)” in each case.

Turning to `CCCCCCCCCCCC(=O)O` [dodecanoic acid], the smell added entry in data set [2] and in data set [4] was “added (A smell was considered to be added when two or more panel members detected a smell derived from the compound.)” in each case.

Values taken from patent publication US20250302080A1, “SWEETNESS AND/OR FLAVOR ENHANCER” (AJINOMOTO CO., INC., priority 2022, published 2025).
